# Assay results as given in PubChem BioAssay AID1347423 (Functional Genomics Laboratory (NCATS/FGL), 2020).
# Screen size: about 52,000 sequences; about 210 (0.4%) were called active.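 How the source made its calls: active means gene whose silencing raises cell survival under the drug, median off-target-corrected z-score across its silencing RNAs 2 or more; inactive means the rest.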 The list shows a part of the results.
# Assay: Resistance to Poly (ADP-Ribose) Polymerase inhibitor: Gene Identification via Genome-wide siRNA Screen
# Settings: mouse BRCA2 R2336H ES cells, olaparib, CellTiter-Glo viability; stronger effect = higher value
# How it was run: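 Genome-wide siRNA screen (3 siRNAs/gene, 20 nM) in mouse ES cells carrying hypomorphic BRCA2 R2336H; olaparib 500 nM added 48 h post-transfection, CellTiter-Glo viability 72 h later. Normalized to plate-median negative control; MAD z-scores, gene median, seed-adjusted.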
row,Sequence,z-score
1,GGGAACGUACAUUUCUCAATT against Il18r1,inactive: 0.84
2,GGGAUUUGAGCAUCUUUCCTT against 2610040E16Rik,inactive: 0.798
3,GGAGUUGGGUCAUCUUCGATT against C530028I08Rik,inactive: -1.02
4,GGAAAUAUGUGUCCGCACUTT against Mfap2,inactive: -0.336
5,CCAUGUUAUAUGAUAAGGGTT against 2410016O06Rik,inactive: -0.442
6,GGACCAAUAAAUCCUGAUATT against Gzmm,inactive: -0.669
7,GCCAAUGAAAGAGACGUAGTT against 6430514L14Rik,inactive: -0.303
8,GGCCACCUAUAUGCUGAAGTT against Ngef,inactive: 1.11
9,GCCUGGAGAAGUGAACUCUTT against Tll1,inactive: -0.227
10,GCUCCCACGAUAUAGCCACTT against Gm839,inactive: 0.651
11,GGAUAUACCAACCUACAAATT against Plxnc1,inactive: -0.44
12,GGAGAAGUUUGAAGAGAUGTT against Cct5,inactive: -0.951
13,CCUGACUCCGAUUUUGAGUTT against Elp3,inactive: -0.0744
14,CGCAUUCUACGCCUUUAUGTT against Wbp11,inactive: 1.29
15,CCGUGUUCUUAUGGGUUUUTT against Fgf13,inactive: -1.39
16,GCUCUCUUAUUGUGAACCUTT against Olfr1168,inactive: 0.0677
17,CCCUGUCAUCAUUGAUGGGTT against Dhrs6,inactive: -0.31
18,CCUUAAUGAUGAUCCUAUATT against Neu3,inactive: 1.7
19,GGCUUCGGAUAUGGCUACATT against Krtap16-4,inactive: -0.768
20,GCUCUUUACCCAUCACUAATT against 8030463A06Rik,inactive: -0.258
21,GGCAGAGGAAAUUCUGGAGTT against Rpl11,inactive: -2.9
22,GGAAUCGGUACUCUUCCACTT against Tcerg1l,inactive: -0.398

row,Sequence,z-score
1,CCCAUUGGUAUACUUGGAUTT against 2210407C18Rik,inactive: 0.459
2,GGGUGACUACAAAUACCUGTT against 4933426M11Rik,inactive: 0.117
3,CCCUACGCUUCAUCAAGCUTT against Glp1r,inactive: 0.883
4,GGUCUACCUGGAGUAAUGCTT against Sp1,inactive: -0.777
5,GGUAUUCACACUGAAGCCCTT against H2-DMa,inactive: -0.295
6,GGAUGAGAAAUACUUUCGGTT against C8a,inactive: 0.798
7,GGCAUAUAUACAUACCUCCTT against Olfr1389,inactive: -1.4
8,GGUGUUUUUGUCCAGGUCATT against Kcnk3,inactive: 0.324
9,CCAUCAAGGGAGGUCCUUUTT against Renbp,inactive: -1.26
10,ACCUUCAACACCAGUUUGGTT against Olfr1393,inactive: -0.217
11,GGCUGAGAUAAUCACAUUUTT against Dbhl1,inactive: -1.14
12,CGAGUGAGUAUUUUCUCUUTT against Gdf10,inactive: 0.585
13,GGAUGAAGAACUGAAAUCUTT against Unc13b,inactive: 1.51
14,GGAAUAUGAGAGAAGCUCATT against Dpf2,inactive: -1.17
15,GCUAUAGUGCCAAAUUUGCTT against Alad,inactive: 1.43
16,CCAAAUCCCAUCGAGUUCCTT against 2810410M20Rik,inactive: 0.562
17,GGCCUGUGGUUAUGCUGUGTT against Cyp2b10,inactive: 0.244
18,GGUGUCCUAUAACCAAGCATT against Drpla,inactive: -0.211
19,GGUAUAAGGUCAUAGAAUUTT against E230016K23Rik,inactive: 0.756
20,CCAUAAGAAAGGAGACUAGTT against 9230117N10Rik,inactive: -2.11
21,GGCCACGACUCUUUGUUUATT against Ush1g,inactive: -0.26
22,GGUAUGUCCUCUGGUCAAUTT against Plunc,inactive: 0.447

# 2 entries from above, bar-delimited:
row | Sequence | z-score
5 | GGUAUUCACACUGAAGCCCTT against H2-DMa | inactive: -0.295
6 | GGAUGAGAAAUACUUUCGGTT against C8a | inactive: 0.798

# Next results

row,Sequence,z-score
1,GCAGGUAUGUACCGUUUCUTT against Etos1,inactive: -0.584
2,GCUUGAAUCUAGCAGCUUUTT against Dvl1,inactive: -0.211
3,GGGCAUCUUUGCAUUCAAGTT against Frs3,inactive: 0.333
4,GGUGGAUGCCUUGAAUAUGTT against 1700029P11Rik,inactive: -0.0529
5,GGAGAAAAUACAACUGUGATT against Ctrc,inactive: 0.985
6,GGAACUAAUGAAACAGCUGTT against Abat,inactive: -1.34
7,CCUUGCCAUAAGUGAUUUATT against Gpr74,inactive: 0.588
8,GGAAAUCAUUAGCACCUAGTT against Sox13,inactive: -0.555
9,GGAAAUGUGACCACAAAGATT against Tas2r120,inactive: -0.347
10,GGGUUGCCUACUGCAUUAUTT against Cbx2,inactive: -1.18
11,GCUGCUACGUUCUUGUAAATT against Pmp2,inactive: -0.271
12,GCUGGAAUGCAAGGGCUUCTT against Gchfr,inactive: -0.978
13,CGCUCCAUCCAAGAGUUCUTT against Gp1bb,inactive: -0.142
14,GAUGUACGAGAGCUUAGCATT against 2900010M23Rik,inactive: -0.877
15,GGUCGUUGCCAACAUUGCUTT against MGC74379,inactive: 1.91
16,GGAACCAUGAAAUAAAUGUTT against Acad8,inactive: -1.01
17,GGAACCUAUUGCUGUUUUATT against Map2k3,inactive: 0.408
18,GGAGGAGAGGUACAAGAUGTT against Pcyt2,inactive: 0.205
19,GCUAGAAUGUCUCAAUACUTT against 2600001J17Rik,inactive: -2.77
20,GGGUUCUCUUGCCUACACATT against 2610020N02Rik,inactive: -1.72
21,GGUUUUGAGUGAGAAAUGGTT against Plekhb2,inactive: -0.303
22,GGCAUUGGAAUAAAAUUUGTT against Rfk,inactive: 0.826

# A portion from the list above, as a working copy:
row,Sequence,z-score
12,GCUGGAAUGCAAGGGCUUCTT against Gchfr,inactive: -0.978
13,CGCUCCAUCCAAGAGUUCUTT against Gp1bb,inactive: -0.142
